Like-named read-outs stand apart in the source and are kept apart here. Results are given in words; binding and its absence hold for the method and conditions named. In cells and extracts the contact can be indirect. These calls come from enrichment with a bait or labelling near it, and not all partners need be listed. For some of these results: Tags and fused reporters may be left off the sequences shown. Blank lines part the entries; values can stand above or below the molecule they belong to.
Tests used:
Test in all cases: affinity purification with mass spectrometry
[1] = biological target: T1, MCUB (MCU-dominant negative beta subunit) fused at the C-terminus to a StrepII-HA-His6 tag (UniProt Q9NWR8)
T1 sequence: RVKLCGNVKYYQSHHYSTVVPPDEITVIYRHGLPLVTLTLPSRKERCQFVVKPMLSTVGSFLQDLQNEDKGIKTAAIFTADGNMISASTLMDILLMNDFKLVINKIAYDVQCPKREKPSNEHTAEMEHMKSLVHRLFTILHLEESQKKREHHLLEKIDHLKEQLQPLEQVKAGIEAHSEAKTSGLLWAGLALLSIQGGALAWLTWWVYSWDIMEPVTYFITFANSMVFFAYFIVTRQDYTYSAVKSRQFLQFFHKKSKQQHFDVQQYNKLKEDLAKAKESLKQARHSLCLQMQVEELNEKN

Chains of the proteins cited; added tags and fusions are not shown. Lines headed by an entry give the natural chain unless they say otherwise; changes in a name come on top. Residues count along the entry.
UniProt Q8NE86, 51-351, stated change not applied: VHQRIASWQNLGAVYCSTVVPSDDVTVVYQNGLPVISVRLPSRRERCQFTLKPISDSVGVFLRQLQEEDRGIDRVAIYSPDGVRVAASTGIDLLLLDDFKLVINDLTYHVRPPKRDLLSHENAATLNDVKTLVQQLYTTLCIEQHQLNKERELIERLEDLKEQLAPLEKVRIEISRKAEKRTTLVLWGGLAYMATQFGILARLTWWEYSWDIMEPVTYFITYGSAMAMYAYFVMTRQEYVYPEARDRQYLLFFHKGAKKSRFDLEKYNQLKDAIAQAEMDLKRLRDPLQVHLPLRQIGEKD

[2] = biological target: T2, EMRE (Essential MCU Regulator) fused at the C-terminus to a StrepII-HA-His6 tag (UniProt Q9H4I9)
T2 sequence: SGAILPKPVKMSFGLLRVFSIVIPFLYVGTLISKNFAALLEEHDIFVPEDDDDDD

[3] = biological target: MCU (Mitochondrial Calcium Uniporter) fused at the C-terminus to a StrepII-HA-His6 tag (UniProt Q8NE86)
[4] = biological target: T3, MCUB (MCU-dominant negative beta subunit) fused at the C-terminus to a StrepII-HA-His6 tag, Q9NWR8; details: remark: other sources report otherwise
T3 chain: T1 sequence

[5] = biological target: T1, MCUB (MCU-dominant negative beta subunit) fused at the C-terminus to a StrepII-HA-His6 tag; remark: listed apart in the source

B1: SLC25A25 (protein, UniProt Q6KCM7 1-469)
chain: MLCLCLYVPVIGEAQTEFQYFESKGLPAELKSIFKLSVFIPSQEFSTYRQWKQKIVQAGDKDLDGQLDFEEFVHYLQDHEKKLRLVFKSLDKKNDGRIDAQEIMQSLRDLGVKISEQQAEKILKSMDKNGTMTIDWNEWRDYHLLHPVENIPEIILYWKHSTIFDVGENLTVPDEFTVEERQTGMWWRHLVAGGGAGAVSRTCTAPLDRLKVLMQVHASRSNNMGIVGGFTQMIREGGARSLWRGNGINVLKIAPESAIKFMAYEQIKRLVGSDQETLRIHERLVAGSLAGAIAQSSIYPMEVLKTRMALRKTGQYSGMLDCARRILAREGVAAFYKGYVPNMLGIIPYAGIDLAVYETLKNAWLQHYAVNSADPGVFVLLACGTMSSTCGQLASYPLALVRTRMQAQASIEGAPEVTMSSLFKHILRTEGAFGLYRGLAPNFMKVIPAVSISYVVYENLKITLGVQSR
- binding [2]: binds
- binding [3]: binds

B2: MICU2, Q8IYU8 23-434 (protein)
chain: AVSRQAVRSPGPLAAAVAGAALAGAGAAWHHSRVSVAARDGSFTVSAQKNVEHGIIYIGKPSLRKQRFMQFSSLEHEGEYYMTPRDFLFSVMFEQMERKTSVKKLTKKDIEDTLSGIQTAGCGSTFFRDLGDKGLISYTEYLFLLTILTKPHSGFHVAFKMLDTDGNEMIEKREFFKLQKIISKQDDLMTVKTNETGYQEAIVKEPEINTTLQMRFFGKRGQRKLHYKEFRRFMENLQTEIQEMEFLQFSKGLSFMRKEDFAEWLLFFTNTENKDIYWKNVREKLSAGESISLDEFKSFCHFTTHLEDFAIAMQMFSLAHRPVRLAEFKRAVKVATGQELSNNILDTVFKIFDLDGDECLSHEEFLGVLKNRMHRGLWVPQHQSIQEYWKCVKKESIKGVKEVWKQAGKGLF
- binding [4]: binds

B3: EF-hand domain-containing protein D1 (EFHD1) (protein, UniProt Q9BUP0 1-239)
chain: MASEELACKLERRLRREEAEESGPQLAPLGAPAPEPKPEPEPPARAPTASADAELSAQLSRRLDINEGAARPRRCRVFNPYTEFPEFSRRLIKDLESMFKLYDAGRDGFIDLMELKLMMEKLGAPQTHLGLKSMIKEVDEDFDGKLSFREFLLIFHKAAAGELQEDSGLMALAKLSEIDVALEGVKGAKNFFEAKVQALSSASKFEAELKAEQDERKREEEERRLRQAAFQKLKANFNT
- binding [5]: binds
- binding [2]: binds

Now from value to molecule:

- binding [1]: binds
Molecule: MCU (Mitochondrial Calcium Uniporter) (from UniProt Q8NE86 51-351)

- binding [1]: binds
Molecule: MICU1 (Mitochondrial Calcium Uptake 1) (from UniProt Q9BPX6 34-476)
